Measured values reported in article PMC4921861.
No constants are given. Whether binding was seen depends on the method and setting. In cells and extracts the contact can be indirect. Some entries that bind do so weakly or less than the wild type.

Protein sequences, listed by entry. Tags and fused reporters are not part of them.
UniProt O08586: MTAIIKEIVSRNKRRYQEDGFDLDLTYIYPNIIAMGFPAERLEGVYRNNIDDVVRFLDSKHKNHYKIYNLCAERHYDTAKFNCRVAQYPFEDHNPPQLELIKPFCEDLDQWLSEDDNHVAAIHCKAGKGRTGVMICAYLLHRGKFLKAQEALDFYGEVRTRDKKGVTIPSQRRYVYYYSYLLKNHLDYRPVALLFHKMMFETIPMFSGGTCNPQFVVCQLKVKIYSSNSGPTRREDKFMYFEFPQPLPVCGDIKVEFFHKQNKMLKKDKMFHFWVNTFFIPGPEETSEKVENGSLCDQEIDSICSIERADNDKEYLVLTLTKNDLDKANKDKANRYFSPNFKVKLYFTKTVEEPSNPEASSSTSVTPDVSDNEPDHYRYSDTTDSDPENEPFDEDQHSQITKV

Columns and labels:
[1] = target: phosphatase and tensin homologue (PTEN) (mouse (endogenous in MEFs)) (UniProt O08586); assay: condition: only in parental Txnrd1^fl/fl MEFs (TrxR1 expressed); co-IP; lysate of parental Txnrd1^fl/fl MEFs (RIPA buffer, 1 to 2 mg protein) immunoprecipitated with rabbit anti-PTEN antibody on Dynabeads sheep anti rabbit IgG, overnight at 4 °C; immunoblotted for PTEN and Trx1; three repeats
[2] = target: phosphatase and tensin homologue (PTEN) (mouse (endogenous in MEFs)) (UniProt O08586); assay: co-IP; lysate of Txnrd1^-/- MEFs (RIPA buffer, 1 to 2 mg protein) immunoprecipitated with rabbit anti-PTEN antibody on Dynabeads sheep anti rabbit IgG, overnight at 4 °C; immunoblotted for PTEN and Trx1; three repeats

B1: thioredoxin 1 (Trx1) (protein, UniProt P10639 1-105)
chain: MVKLIESKEAFQEALAAAGDKLVVVDFSATWCGPCKMIKPFFHSLCDKYSNVVFLEVDVDDCQDVAADCEVKCMPTFQFYKKGQKVGEFSGANKEKLEASITEYA
B1 was tested, and the binding [1] was “no binding” and the binding [2] was “binds”.
